Measured values as given in PubChem BioAssay AID328 (DTP/NCI, 2004).
The list shows only some results of the screen, not a fair sample: it gathers tests that were run many times, whatever their T/C, doses with no T/C, and many T/C values between a quarter and a half above the control. Further doses and runs are listed elsewhere. T/C is the treated group as % of the vehicle group. Some entries give survivors of the animals treated and no T/C: the source holds a T/C of zero for them, seemingly a mark for toxic or unscored doses. Some survivor counts are full or nearly so, which does not show that the dose was tolerated: the source hardly ever lists a survival T/C far under the control, and the zero likely stands for such cases as well. Survivors were counted at the toxicity check, usually on the fifth day, unless a day is given; later deaths do not show. Schedule codes are those of the source, read here as Q, the interval in days (D) or hours (H), X, the number of doses. Some entries were tested several times; their values stand side by side, smallest first. Where survival is the endpoint, the PubChem record calls one and a half times the control and up active, and a quarter to a half above the control has no call in these data; cut-offs in other NCI protocols can differ. Some T/C values carry the count of animals alive at the toxicity check (mostly the fifth day); without a count, all were alive then. Brackets with × give the number of equal values in this list.

Test system: BDF1 mice, P388 leukemia ip, median survival T/C
Assay: NCI In Vivo Anticancer Drug Screen. Data for tumor model P388 Leukemia (intraperitoneal) in B6D2F1 (BDF1) mice
Conditions: T/C endpoint: median survival time, higher T/C = longer survival
Summary of the method: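 In tumour-bearing mice, survival after compound treatment is set against the vehicle group and given as a quotient.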

[1] = dose: 0.25 mg/kg/injection, schedule: Q01DX009 (ip), vehicle: water
[2] = dose: 0.25 mg/kg/injection, schedule: Q04DX003 (ip), vehicle: water
[3] = dose: 0.5 mg/kg/injection, schedule: Q01DX009 (ip), vehicle: water

## CC[C@]1(O)C[C@H]2CN(CCc3c([nH]c4ccccc34)[C@@](C(=O)OC)(c3cc4c(cc3OC)N(C=O)[C@H]3[C@@](O)(C(=O)OC)[C@H](OC(C)=O)[C@]5(CC)C=CCN6CC[C@]43[C@@H]65)C2)C1
dose: 0.01 mg/kg/injection, schedule: Q01DX009 (ip), vehicle: water
  T/C: 129 % of control
dose: 0.03 mg/kg/injection, schedule: Q01DX009 (ip), vehicle: water, evaluated on day 30
  T/C: 133 % of control
dose: 0.03 mg/kg/injection, schedule: Q01DX009 (ip), vehicle: water, evaluated on day 32
  T/C: 128 % of control
dose: 0.06 mg/kg/injection, schedule: Q01DX009 (ip), vehicle: water, evaluated on day 30
  T/C: 100, 171, 172, 177 % of control
dose: 0.06 mg/kg/injection, schedule: Q01DX009 (ip), vehicle: water, evaluated on day 32
  T/C: 103 % of control
dose: 0.06 mg/kg/injection, schedule: Q01DX009 (ip), vehicle: water
  survivor count: 5 of 6 and 6 of 6
dose: 0.12 mg/kg/injection, schedule: Q01DX009 (ip), vehicle: water, evaluated on day 30
  T/C: 168, 177, 200, 216 % of control
dose: 0.12 mg/kg/injection, schedule: Q01DX009 (ip), vehicle: water, evaluated on day 32
  T/C: 195 % of control
dose: 0.12 mg/kg/injection, schedule: Q01DX009 (ip), vehicle: water
  survivor count: 2 of 6 and 3 of 6
dose: 0.12 mg/kg/injection, schedule: Q04DX003 (ip), vehicle: water
  T/C: 136 % of control
dose: 0.2 mg/kg/injection, schedule: Q04DX002 (ip), vehicle: saline
  T/C: 141 % of control
dose: 0.25 mg/kg/injection, schedule: Q01DX001 (ip), vehicle: saline
  T/C: 137 % of control
[1]
  T/C: 150, 161, 200, 204 % of control
  survivor count: 2 of 6 and 3 of 6
[2]
  T/C: 131 % of control
  survivor count: 6 of 6
dose: 0.33 mg/kg/injection, schedule: Q01DX009 (ip), vehicle: clinical formulation
  survivor count: 10 of 10
dose: 0.5 mg/kg/injection, schedule: Q01DX001 (ip), vehicle: saline
  T/C: 142 % of control
dose: 0.5 mg/kg/injection, schedule: Q01DX001 (ip), vehicle: water
  T/C: 142 % of control
dose: 0.5 mg/kg/injection, schedule: Q01DX009 (ip), vehicle: clinical formulation
  survivor count: 10 of 10
dose: 0.5 mg/kg/injection, schedule: Q01DX009 (ip), vehicle: saline
  survivor count: 6 of 6
[3]
  T/C: 90 and 94 % of control
  survivor count: 0 of 6, 1 of 6, 6 of 6
dose: 0.5 mg/kg/injection, schedule: Q01DX010 (ip), vehicle: saline
  survivor count: 6 of 6
dose: 0.5 mg/kg/injection, schedule: Q04DX003 (ip), vehicle: water, evaluated on day 11
  T/C: 127 % of control [6 of 7 alive]
dose: 0.5 mg/kg/injection, schedule: Q04DX003 (ip), vehicle: water, evaluated on day 34
  T/C: 136 % of control
dose: 0.67 mg/kg/injection, schedule: Q04DX003 (ip), vehicle: saline, evaluated on day 5
  T/C: 264 % of control
dose: 0.67 mg/kg/injection, schedule: Q04DX003 (ip), vehicle: saline, evaluated on day 60
  T/C: 225, 242, 254 % of control
dose: 0.72 mg/kg/injection, schedule: Q04DX003 (ip), vehicle: saline
  T/C: 143 % of control
dose: 0.8 mg/kg/injection, schedule: Q04DX003 (ip), vehicle: saline, evaluated on day 5
  T/C: 191 and 233 % of control
dose: 0.8 mg/kg/injection, schedule: Q04DX003 (ip), vehicle: saline, evaluated on day 60
  T/C: 191, 200, 221, 222, 233, 261, 264 % of control
dose: 1.0 mg/kg/injection, schedule: Q01DX001 (ip), vehicle: saline
  T/C: 144 % of control
dose: 1.0 mg/kg/injection, schedule: Q01DX009 (ip), vehicle: saline
  survivor count: 5 of 6
dose: 1.0 mg/kg/injection, schedule: Q01DX009 (ip), vehicle: water
  survivor count: 4 of 6 and 6 of 6
dose: 1.0 mg/kg/injection, schedule: Q04DX003 (ip), vehicle: saline, evaluated on day 5
  T/C: 167, 221, 235 % of control
dose: 1.0 mg/kg/injection, schedule: Q04DX003 (ip), vehicle: saline, evaluated on day 60
  T/C: 221, 248, 250, 266, 279, 300 % of control
dose: 1.0 mg/kg/injection, schedule: Q04DX003 (ip), vehicle: water
  T/C: 132 % of control [4 of 6 alive]
dose: 1.2 mg/kg/injection, schedule: Q04DX003 (ip), vehicle: saline, evaluated on day 5
  T/C: 198 and 250 % of control
dose: 1.2 mg/kg/injection, schedule: Q04DX003 (ip), vehicle: saline, evaluated on day 60
  T/C: 105, 198, 225, 250, 290, 328, 529 % of control
dose: 1.3 mg/kg/injection, schedule: Q01DX001 (ip), vehicle: saline, evaluated on day 5
  T/C: 166, 171 (2×), 200 % of control
dose: 1.3 mg/kg/injection, schedule: Q01DX001 (ip), vehicle: saline, evaluated on day 60
  T/C: 166, 171, 174, 200 % of control
dose: 1.5 mg/kg/injection, schedule: Q04DX003 (ip), vehicle: saline, evaluated on day 5
  T/C: 171, 227, 232 % of control
dose: 1.5 mg/kg/injection, schedule: Q04DX003 (ip), vehicle: saline, evaluated on day 60
  T/C: 227, 294, 505, 548 % of control
dose: 1.8 mg/kg/injection, schedule: Q04DX003 (ip), vehicle: saline, evaluated on day 5
  T/C: 247 % of control
dose: 1.8 mg/kg/injection, schedule: Q04DX003 (ip), vehicle: saline, evaluated on day 60
  T/C: 92, 118, 128, 482, 529 % of control
dose: 2.0 mg/kg/injection, schedule: Q01DX001 (ip), vehicle: saline, evaluated on day 5
  T/C: 141, 167, 175, 194, 206 % of control
dose: 2.0 mg/kg/injection, schedule: Q01DX001 (ip), vehicle: saline, evaluated on day 35
  T/C: 158 % of control [5 of 6 alive]
dose: 2.0 mg/kg/injection, schedule: Q01DX001 (ip), vehicle: saline, evaluated on day 60
  T/C: 171, 175, 194, 200, 206 % of control
dose: 2.0 mg/kg/injection, schedule: Q01DX009 (ip), vehicle: saline
  survivor count: 2 of 6
dose: 2.0 mg/kg/injection, schedule: Q01DX009 (ip), vehicle: water
  survivor count: 0 of 6, 4 of 6, 5 of 6
dose: 2.0 mg/kg/injection, schedule: Q04DX003 (ip), vehicle: water
  T/C: 140 % of control
dose: 3.0 mg/kg/injection, schedule: Q01DX001 (ip), vehicle: saline, evaluated on day 5
  T/C: 136, 191, 194, 221 % of control
dose: 3.0 mg/kg/injection, schedule: Q01DX001 (ip), vehicle: saline, evaluated on day 60
  T/C: 167, 191, 194 % of control
dose: 4.0 mg/kg/injection, schedule: Q01DX001 (ip), vehicle: water
  survivor count: 4 of 6
dose: 8.0 mg/kg/injection, schedule: Q01DX001 (ip), vehicle: saline
  survivor count: 6 of 10
dose: 8.0 mg/kg/injection, schedule: Q01DX001 (ip), vehicle: water
  survivor count: 3 of 6
dose: 125.0 micrograms/kg/injection, schedule: Q01DX001 (ip), vehicle: clinical formulation
  T/C: 138 % of control
dose: 250.0 micrograms/kg/injection, schedule: Q03HX024 (ip), vehicle: clinical formulation
  survivor count: 8 of 10
dose: 500.0 micrograms/kg/injection, schedule: Q01DX009 (ip), vehicle: clinical formulation
  survivor count: 10 of 10
dose: 500.0 micrograms/kg/injection, schedule: Q03HX008 (ip), vehicle: clinical formulation
  survivor count: 5 of 10
dose: 1000.0 micrograms/kg/injection, schedule: Q04DX003 (ip), vehicle: saline
  T/C: 237, 248, 271, 298 % of control
dose: 2000.0 micrograms/kg/injection, schedule: Q04DX003 (ip), vehicle: saline
  T/C: 94, 100 [7 of 8 alive], 117 [7 of 8 alive], 118 % of control [6 of 8 alive]
